Results are given in words; binding and its absence hold for the method and conditions named. For some assays here: In cells and extracts the contact can be indirect. Some binding calls cover weakened binding; strength is not graded here. One block for each binder: values may come before it.
Experiments:
[1] = biological target: pBD-GAL4-MPK6 (Arabidopsis thaliana) (UniProt Q39026); assay: two-hybrid; yeast co-transformed with pAD-GAL4-AtDOF4.7 and pBD-GAL4-MPK3/MPK6; growth on 5 mM 3-AT medium lacking Trp, Leu, His and Ade, 28°C, 3 days
[2] = biological target: pUC-SPYCE-MPK6 (Arabidopsis thaliana) (UniProt Q39026); assay: split reporter; BiFC: pUC-SPYNE-AtDOF4.7 and pUC-SPYCE-MPK3/6 co-transformed into Arabidopsis mesophyll protoplasts; YFP fluorescence by laser confocal microscopy

By UniProt entry, the sequences of proteins in these tests, tags left out.
UniProt Q39026: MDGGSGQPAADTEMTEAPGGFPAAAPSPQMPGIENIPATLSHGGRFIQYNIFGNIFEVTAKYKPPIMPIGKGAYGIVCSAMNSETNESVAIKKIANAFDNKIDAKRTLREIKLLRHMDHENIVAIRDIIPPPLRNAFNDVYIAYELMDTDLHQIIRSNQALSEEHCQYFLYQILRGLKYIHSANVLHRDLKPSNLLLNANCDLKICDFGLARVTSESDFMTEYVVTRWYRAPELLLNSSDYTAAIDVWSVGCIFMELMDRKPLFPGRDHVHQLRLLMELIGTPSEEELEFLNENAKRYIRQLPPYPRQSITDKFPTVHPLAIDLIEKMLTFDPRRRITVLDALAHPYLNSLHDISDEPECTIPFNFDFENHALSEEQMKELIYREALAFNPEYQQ

binding [1]: binds
B1: pAD-GAL4-AtDOF4.7 (protein, UniProt Q84K52 1-246)
chain: MMTSSHQSNTTGFKPRRIKTTAKPPRQINNKEPSPATQPVLKCPRCDSVNTKFCYYNNYSLSQPRHYCKNCRRYWTRGGALRNVPIGGSTRNKNKPCSLQVISSPPLFSNGTSSASRELVRNHPSTAMMMMSSGGFSGYMFPLDPNFNLASSSIESLSSFNQDLHQKLQQQRLVTSMFLQDSLPVNEKTVMFQNVELIPPSTVTTDWVFDRFATGGGATSGNHEDNDDGEGNLGNWFHNANNNALL

binding [2]: binds
B2: pUC-SPYNE-AtDOF4.7 (protein, UniProt Q84K52 1-246)
chain: B1 chain

— paper PMC4911407
